Source: PubChem BioAssay AID1259425 (University of Nebraska Medical Center, 2018)
Shown is one part, drawn at random, of about 14,000 deposited reagents. The record does not give: the time to read-out.

- Screen: 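Find knockdowns that reproduce the gene expression pattern seen when KSR1 is lost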 (primary screen)
- Cells: HCT116 human colon cancer cells
- Reagent: siRNA pool against human genes, 50 nM siRNA
- Read-out: 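mRNA of six signature genes measured together by branched-DNA assay after 50 nM siRNA pool, blank removed, divided by geometric mean of two housekeeping genes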
- Direction: BNIP3L mRNA: higher = more BNIP3L transcript after knockdown; NDRG1 mRNA: higher = more NDRG1 transcript after knockdown; BNIP3 mRNA: higher = more BNIP3 transcript after knockdown; ALDOC mRNA: higher = more ALDOC transcript after knockdown; ACSL5 mRNA: higher = more ACSL5 transcript after knockdown

target gene | BNIP3L mRNA, set 1 | NDRG1 mRNA, set 1 | BNIP3 mRNA, set 1 | ALDOC mRNA, set 1 | ACSL5 mRNA, set 1
PRDM9 | 0.0982 | 0.16 | 0.445 | 0.0178 | 0.229
S100A13 | 0.0626 | 0.061 | 0.308 | 0.0241 | 0.105
UBE2S | 0.149 | 0.261 | 0.361 | 0.0262 | 0.144
LAMA2 | 0.0772 | 0.125 | 0.34 | 0.0489 | 0.245
FGFBP2 | 0.27 | 0.253 | 0.335 | 0.0684 | 0.355
SUN1 | 0.107 | 0.266 | 0.236 | 0.0288 | 0.166
SINHCAF | 0.0888 | 0.188 | 0.33 | 0.0221 | 0.181
CDH4 | 0.218 | 0.457 | 0.389 | 0.0113 | 0.246
ZNF74 | 0.0902 | 0.112 | 0.234 | 0.0105 | 0.104
EIF3J | 0.0809 | 0.517 | 0.297 | -0.00657 | 0.36
ZNF500 | 0.17 | 0.269 | 0.449 | 0.0193 | 0.174
ATP6V1B1 | 0.0459 | 0.133 | 0.257 | 0.0398 | 0.259
RPL18 | 0.262 | 0.283 | 0.618 | 0.0474 | 0.176
ITGB8 | 0.0964 | 0.228 | 0.312 | 0.022 | 0.204
EIF5A | 0.0908 | 0.151 | 0.363 | 0.0342 | 0.124
NLGN1 | 0.0848 | 0.696 | 0.256 | 0.0155 | 0.256
GALNT12 | 0.172 | 0.176 | 0.433 | 0.0215 | 0.166
ROR2 | 0.181 | 0.172 | 0.383 | 0.0239 | 0.296
FXYD2 | 0.277 | 0.166 | 0.57 | 0.101 | 0.438
KCNH2 | 0.0957 | 0.253 | 0.196 | 0.018 | 0.0826
PCDHA7 | 0.06 | 0.0714 | 0.302 | 0.0192 | 0.116
ASPN | 0.0759 | 0.137 | 0.298 | 0.014 | 0.168
CIAO2A | 0.174 | 0.206 | 0.211 | 0.079 | 0.247
LTB4R2 | 0.16 | 0.645 | 0.421 | 0.0457 | 0.327
MKS1 | 0.13 | 0.305 | 0.273 | 0.0162 | 0.172

Laid out differently: results already given.
SINHCAF → BNIP3L mRNA, set 1: 0.0888; NDRG1 mRNA, set 1: 0.188; BNIP3 mRNA, set 1: 0.33; ALDOC mRNA, set 1: 0.0221; ACSL5 mRNA, set 1: 0.181
CDH4 → BNIP3L mRNA, set 1: 0.218; NDRG1 mRNA, set 1: 0.457; BNIP3 mRNA, set 1: 0.389; ALDOC mRNA, set 1: 0.0113; ACSL5 mRNA, set 1: 0.246
ZNF74 → BNIP3L mRNA, set 1: 0.0902; NDRG1 mRNA, set 1: 0.112; BNIP3 mRNA, set 1: 0.234; ALDOC mRNA, set 1: 0.0105; ACSL5 mRNA, set 1: 0.104
EIF3J → BNIP3L mRNA, set 1: 0.0809; NDRG1 mRNA, set 1: 0.517; BNIP3 mRNA, set 1: 0.297; ALDOC mRNA, set 1: -0.00657; ACSL5 mRNA, set 1: 0.36
ZNF500 → BNIP3L mRNA, set 1: 0.17; NDRG1 mRNA, set 1: 0.269; BNIP3 mRNA, set 1: 0.449; ALDOC mRNA, set 1: 0.0193; ACSL5 mRNA, set 1: 0.174
ATP6V1B1 → BNIP3L mRNA, set 1: 0.0459; NDRG1 mRNA, set 1: 0.133; BNIP3 mRNA, set 1: 0.257; ALDOC mRNA, set 1: 0.0398; ACSL5 mRNA, set 1: 0.259
RPL18 → BNIP3L mRNA, set 1: 0.262; NDRG1 mRNA, set 1: 0.283; BNIP3 mRNA, set 1: 0.618; ALDOC mRNA, set 1: 0.0474; ACSL5 mRNA, set 1: 0.176
ITGB8 → BNIP3L mRNA, set 1: 0.0964; NDRG1 mRNA, set 1: 0.228; BNIP3 mRNA, set 1: 0.312; ALDOC mRNA, set 1: 0.022; ACSL5 mRNA, set 1: 0.204
EIF5A → BNIP3L mRNA, set 1: 0.0908; NDRG1 mRNA, set 1: 0.151; BNIP3 mRNA, set 1: 0.363; ALDOC mRNA, set 1: 0.0342; ACSL5 mRNA, set 1: 0.124
NLGN1 → BNIP3L mRNA, set 1: 0.0848; NDRG1 mRNA, set 1: 0.696; BNIP3 mRNA, set 1: 0.256; ALDOC mRNA, set 1: 0.0155; ACSL5 mRNA, set 1: 0.256
GALNT12 → BNIP3L mRNA, set 1: 0.172; NDRG1 mRNA, set 1: 0.176; BNIP3 mRNA, set 1: 0.433; ALDOC mRNA, set 1: 0.0215; ACSL5 mRNA, set 1: 0.166

The results go on.
target gene | BNIP3L mRNA, set 1 | NDRG1 mRNA, set 1 | BNIP3 mRNA, set 1 | ALDOC mRNA, set 1 | ACSL5 mRNA, set 1
CCL17 | 0.501 | 0.686 | 0.382 | 0.0316 | 0.259
TRIL | 0.143 | 0.513 | 0.25 | 0.0147 | 0.213
HPRT1 | 0.127 | 0.183 | 0.378 | 0.0172 | 0.145
COMMD8 | 0.1 | 0.599 | 0.362 | 0.0717 | 0.155
TRIM34 | 0.124 | 0.347 | 0.312 | 0.0292 | 0.167
IL13 | 0.107 | 0.175 | 0.389 | 0.0157 | 0.126
SCML2 | 0.213 | 0.17 | 0.294 | 0.0436 | 0.296
ZNF609 | 0.075 | 0.111 | 0.194 | 0.0173 | 0.138
SLC4A11 | 0.192 | 0.168 | 0.396 | 0.0498 | 0.227
GNG2 | 0.145 | 0.325 | 0.337 | 0.0253 | 0.0851
ASCL1 | 0.172 | 0.106 | 0.238 | 0.0106 | 0.155
DCAF17 | 0.0944 | 0.218 | 0.332 | 0.00587 | 0.202
LDAH | 0.0721 | 0.138 | 0.391 | 0.0278 | 0.154
ZSWIM6 | 0.14 | 0.0998 | 0.391 | 0.0333 | 0.141
PLA2G1B | 0.12 | 0.147 | 0.232 | 0.0229 | 0.201
ARHGEF40 | 0.177 | 0.763 | 0.429 | 0.0447 | 0.229
AKIP1 | 0.149 | 0.33 | 0.557 | 0.0878 | 0.285
SULT2A1 | 0.0935 | 0.138 | 0.303 | 0.019 | 0.225
RUNX1T1 | 0.11 | 0.0801 | 0.34 | 0.00445 | 0.122
ACRBP | 0.209 | 0.202 | 0.204 | 0.0208 | 0.122
TMT1A | 0.176 | 0.0719 | 0.321 | 0.0235 | 0.171
UNC5C | 0.0687 | 0.349 | 0.234 | 0.0135 | 0.255
CPT2 | 0.183 | 0.0934 | 0.36 | -0.0212 | 0.301
A4GALT | 0.183 | 0.182 | 0.437 | 0.0301 | 0.232
ARHGEF28 | 0.159 | 0.177 | 0.262 | 0.0505 | 0.12
FBXO4 | 0.084 | 0.098 | 0.237 | 0.0322 | 0.148
NCOA7 | 0.157 | 0.161 | 0.338 | 0.0324 | 0.151
SLC39A2 | 0.0745 | 0.134 | 0.356 | 0.0588 | 0.166
ZMAT3 | 0.0742 | 0.0337 | 0.319 | 0.00711 | 0.0654
TULP2 | 0.121 | 0.193 | 0.306 | 0.0263 | 0.177
GABPA | 0.0772 | 0.0945 | 0.227 | 0.0037 | 0.429
TBC1D8B | 0.0499 | 0.546 | 0.275 | 0.0116 | 0.186
CD300LB | 0.098 | 0.245 | 0.257 | 0.0199 | 0.315
MT-ND6 | 0.11 | 0.0468 | 0.228 | 0.052 | 0.111
PCGF2 | 0.0615 | 0.081 | 0.24 | 0.0239 | 0.13
MOG | 0.096 | 0.443 | 0.167 | 0.0317 | 0.198
HPS6 | 0.0969 | 0.605 | 0.276 | 0.00842 | 0.107
SERPINB7 | 0.0643 | 0.198 | 0.31 | 0.0353 | 0.15
